In PubChem BioAssay AID651647 (Sanford-Burnham Center for Chemical Genomics, 2012):
The other results are listed elsewhere or left out.

Experiment: MT1-MMP activation inhibitors, cellular reporter – HT1080 RFP-PRO-GFP cells, GFP/RFP fluorescence, primary screen (AID 651647)
Conditions: GFP/RFP ratio fluorescence, overnight, RFP expression control read, at 20 µM
In short: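 Assay system: RFP-PRO-GFP reporter HT1080 cells; read-out basis: GFP/RFP fluorescence ratio; benchmarks: DMSO wells and RFP-L50D-GFP cells; doses: 20 µM single dose, 1% DMSO; schedule: overnight cell settling, then overnight compound exposure, 37 °C, 5% CO2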

Row | SMILES | RFP signal change [%]
1 | N#CC1(Nc2ccccc2)CCN(CCc2ccccc2)CC1 | 5.15
2 | O=c1[nH]c2ccccc2n1C1CCN(C(c2ccccc2OC(F)(F)F)c2nnnn2C2CCCC2)CC1 (stereo not given) | -9.46
3 | CCN1CCC(Nc2ccc(Cl)cc2)CC1 | 1.46
4 | CSc1ccc(C(=O)NCC2(N3CCOCC3)CCCCC2)cc1 | 4.4
5 | O=C(NCC1(N2CCCCC2)CCCCC1)c1cccc([N+](=O)[O-])c1 | -1.48
6 | O=C(NCC1(N2CCCCC2)CCCCC1)c1ccc(OC(F)F)cc1 | 6.22
7 | CC(C)(C)n1nnnc1C(c1ccccc1OC(F)(F)F)N1CCC(n2c(=O)[nH]c3ccccc32)CC1 (stereo not given) | -9.6
8 | COc1cc(C(=O)NCC2(N3CCCCC3)CCCCC2)ccc1OC(F)F | 5.55
9 | O=C(NCC1(N2CCOCC2)CCCCC1)c1cc(=O)[nH]c2ccccc12 | 0.697
10 | CCCCn1nnnc1C(c1cccc2ccccc12)N1CCC(n2c(=O)[nH]c3ccccc32)CC1 (stereo not given) | -9.55
11 | CN1CCN(CCOC(=O)C(O)(c2ccccc2)c2ccccc2)CC1 | -0.113
12 | COc1ccc(NC2CCN(C(=O)OC(C)(C)C)CC2)cc1 | 3.9
13 | CC(C)c1ccc(C(=O)NCC2(N3CCOCC3)CCCCC2)cc1 | 5.31
14 | O=C(NCC1(N2CCCCC2)CCCCC1)c1cccc(C(F)(F)F)c1 | -2.53
15 | CCC(c1nnnn1C(C)(C)C)N1CCC(n2c(=O)[nH]c3ccccc32)CC1 (stereo not given) | -3.14
16 | O=C(NCC1(N2CCOCC2)CCCCC1)c1cc(F)c(F)cc1Cl | 2.25
17 | COc1cc(OC)c(C(=O)NCC2(N(C)C)CCCCC2)cc1OC | 5.17
18 | CCCCn1nnnc1C(c1ccnc2ccccc12)N1CCC(n2c(=O)[nH]c3ccccc32)CC1 (stereo not given) | 0.307
19 | CC(C)c1ccc(NC2CCN(C(=O)OC(C)(C)C)CC2)cc1 | -14.6
20 | CCCCn1nnnc1C(c1ccccc1OC(F)(F)F)N1CCC(n2c(=O)[nH]c3ccccc32)CC1 (stereo not given) | -18.2
21 | CN(C)c1cccc(C(=O)NCC2(N3CCCCC3)CCCCC2)c1 | 2.32
22 | COc1ccc(CN(CCCl)CCCl)cc1Cl | 1.54
23 | COc1ccc(C(c2nnnn2C2CCCC2)N2CCC(n3c(=O)[nH]c4ccccc43)CC2)cc1 (stereo not given) | -0.942
24 | CCCOc1ccc(C(=O)NCC2(N(C)C)CCCCC2)cc1OC | 2.35

Row | SMILES | RFP signal change [%]
25 | Cc1ccc(C(=O)NCC2(N(C)C)CCCCC2)o1 | 8.54
26 | O=C(NCC1(N2CCCCC2)CCCCC1)c1cncc(Br)c1 | -0.379
27 | CN1CCC(Nc2cccc(F)c2)CC1 | 3.68
28 | Cc1cccc(NC2(C#N)CCN(Cc3ccccc3)CC2)c1 | 1.11
29 | CSc1ccccc1C(=O)NCC1(N2CCCCC2)CCCCC1 | 1.23
30 | CCC(c1nnnn1C1CCCC1)N1CCC(n2c(=O)[nH]c3ccccc32)CC1 (stereo not given) | 0.981
31 | COc1ccc(C(=O)NCC2(N3CCCCC3)CCCCC2)c(OC)c1OC | 1.91
32 | CC(C)(C)OC(=O)N1CCC(N(C(=O)c2ccccc2)c2ccc(F)cc2)CC1 | -3.38
33 | COc1ccc(C(=O)NCC2(N3CCCCC3)CCCCC2)cc1 | 5.16
34 | CCCCn1nnnc1C(c1cccs1)N1CCC(n2c(=O)[nH]c3ccccc32)CC1 (stereo not given) | -3.53
35 | CCCCn1nnnc1C(CC)N1CCC(n2c(=O)[nH]c3ccccc32)CC1 (stereo not given) | 0.0545
36 | O=C(NCC1(N2CCCCC2)CCCCC1)c1cccs1 | 3.75
37 | O=C(NCC1(N2CCCCC2)CCCCC1)c1ccc(=O)[nH]c1 | -0.296
38 | COc1ccc(Cl)cc1C(=O)NCC1(N2CCOCC2)CCCCC1 | -2.96
39 | O=C(OC1CN2CCC1CC2)C1c2ccccc2Oc2ccccc21 (stereo not given) | -3.82
40 | O=c1[nH]c2ccccc2n1C1CCN(C(c2cc3ccccc3o2)c2nnnn2C2CCCCC2)CC1 (stereo not given) | -15.5
41 | N#CC1(Nc2ccccc2)CCN(Cc2ccccc2)CC1 | 0.995
42 | O=C(NCC1(N2CCCCC2)CCCCC1)c1ccc(Cl)s1 | 1.2
43 | CCCCn1nnnc1C(c1ccc(OC)cc1)N1CCC(n2c(=O)[nH]c3ccccc32)CC1 (stereo not given) | -5.21
44 | CCOC(=O)N1CCC(Nc2ccc(OC)cc2)CC1 | 1.24
45 | Cc1cc(C)cc(N(C(=O)c2ccccc2)C2CCN(C(=O)OC(C)(C)C)CC2)c1 | -11.1
46 | O=c1[nH]c2ccccc2n1C1CCN(C(c2ccccc2OC(F)(F)F)c2nnnn2C2CCCCC2)CC1 (stereo not given) | -16.9
47 | O=C(NCC1(N2CCCCC2)CCCCC1)c1ccc(Cl)nc1 | 3.69
48 | O=C(NCC1(N2CCOCC2)CCCCC1)c1cc2ccccc2o1 | 4.48

Row | SMILES | RFP signal change [%]
49 | COc1ccc(NC2CCN(CCc3ccccc3)CC2)c(OC)c1 | 0.281
50 | CCOC(=O)N1CCC(Nc2ccc(F)cc2)CC1 | 1.89
51 | O=C(NCC1(N2CCCCC2)CCCCC1)c1ccc(F)cc1 | 2.77
52 | O=P1(N(CCCl)CCCl)SCCCS1 | 4.63
53 | CCCCn1nnnc1C(c1cc2ccccc2o1)N1CCC(n2c(=O)[nH]c3ccccc32)CC1 (stereo not given) | -22.1
54 | CCCCOc1ccc(C(=O)NCC2(N3CCOCC3)CCCCC2)cc1 | 0.988
55 | O=C1CCN(Cc2ccccc2)CC1 | 2.1
56 | CC(C)(C)n1nnnc1C(c1ccccc1)N1CCC(n2c(=O)[nH]c3ccccc32)CC1 (stereo not given) | 1.19
57 | CCOc1ccc(C)cc1CN(CCCl)CCCl | -0.262
58 | COc1cc(C(=O)NCC2(N(C)C)CCCCC2)ccc1OC(F)F | 2.67
59 | CCOC(=O)N1CCC(Nc2cccc(C)c2)CC1 | -0.228
60 | O=c1[nH]c2ccccc2n1C1CCN(C(c2cccc3ccccc23)c2nnnn2C2CCCC2)CC1 (stereo not given) | -9.66
61 | O=c1[nH]c2ccccc2n1C1CCN(C(c2ccccc2)c2nnnn2C2CCCCC2)CC1 (stereo not given) | -10.3
62 | Fc1ccccc1NC1CCN(Cc2ccccc2)CC1 | 5.65
63 | Cc1ccc(C(=O)NCC2(N3CCCCC3)CCCCC2)o1 | 0.436
64 | Cc1ccc(NC2(C#N)CCN(Cc3ccccc3)CC2)cc1 | 3.03
65 | CCC(c1nnnn1C1CCCCC1)N1CCC(n2c(=O)[nH]c3ccccc32)CC1 (stereo not given) | 0.0153
66 | CC(=O)N(c1ccccc1)C1CCNCC1 | -0.132
67 | COc1cccc(C(c2nnnn2C2CCCCC2)N2CCC(n3c(=O)[nH]c4ccccc43)CC2)c1OC (stereo not given) | -19.6
68 | O=c1[nH]c2ccccc2n1C1CCN(C(c2ccnc3ccccc23)c2nnnn2C2CCCCC2)CC1 (stereo not given) | -4.58
69 | COc1cc(OC)cc(C(=O)NCC2(N3CCCCC3)CCCCC2)c1 | 2.65
70 | Cn1c(=O)[nH]cc(N(CCCl)CCCl)c1=O | 4.83
